# Reference: PubChem BioAssay AID2685 (National Center for Advancing Translational Sciences (NCATS), 2010)
# Some of the results follow. The main result of the screen is listed elsewhere. These columns were measured beside it and carry no call. Most of these compounds were active or inconclusive in the main read-out, so they are no random draw. The note in brackets gives the kind of curve behind each potency; many fits are weak.
# Test: qHTS Assay for Lipid Storage Modulators in Drosophila S3 Cells;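 on cell number change: cells counted by Cell Tracker Red CMTPX staining in the red channel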
# Conditions: BODIPY lipid droplet fluorescence, 18-24 h; for cell number change: measured here: cell count max response, cells fed with added oleic acid
# From the text: NIH Molecular Libraries Probe Production Centers Network [MLPCN] NIH Chemical Genomics Center [NCGC] MLPCN Grant: 1 R03 MH085686-01 Assay Submitter (PI): Beller, Mathias; Max-Planck-Institut fur Biophysikalische Chemie NCGC Assay Overview: Storing lipids as a reservoir for energy or the anabolism of elementary metabolites is a common feature of probably all cells and is conserved from bacteria to humans. The universal cellular lipid storage organelle is the so-called lipid storage droplet (LD). Although ubiquitous, LDs share a simple structure composed of a hydrophobic core that harbors the storage lipids, which is shielded by a droplet-specific phospholipid monolayer to which proteins are attached. The current model of LD biogenesis involves an incorporation of the lipid core into the membrane leaflets of the endoplasmic reticulum (ER) followed by a subsequent budding-like maturation of a LD, which ultimately pinches off. Once released, LD volume can increase by localized lipogenesis or fusion of existing droplet. Storage lipids are re-mobilized enzymatically by lipase activity. Lipase regulation in the adipocyte is heavily studied and involves multiple components including catecholamine signaling, the LD-associated proteins Perilipin and comparative gene identification (CGI-58) and at least two lipases named hormone sensitive lipase (HSL) and adipocyte triglyceride lipase (ATGL). LD regulation outside of the adipocyte is poorly understood and only few components are known. However, there is an urgent need to learn more about ectopic fat depots as mislocalized storage of lipids, for example in the liver or muscle, is an eminent health problem associated with insulin resistance or the metabolic syndrome. We developed a laser-scanning cytometer assay to enable 1,536-well screening and combined the results of the small molecules screen with an RNAi database based on lipid storage.
# Triacsin C (Sigma-Aldrich T-4540), an inhibitor of long-chain fatty acyl CoA synthetase that blocks synthesis of triglycerides, was used as a positive control for lipid under-storage. A total of 23 nL of compound solution of different concentrations were transferred to the assay plates using a Kalypsys pin tool equipped with a 1,536-pin array containing 10-nL slotted pins (FP1S10, 0.457-mm diameter, 50.8 mm long; V&P Scientific). One microliter of oleic acid (400 uM) was added, and the plate was lidded with stainless steel rubber gasket lined lids containing pinholes. […] Fluorescence was detected by excitation of the fluorophores with a 488-nm laser on an Acumen Explorer (TTP Lab Tech). The total intensity in channel 2 (500-530 nm) reflected lipid droplet accumulation. Cells were detected using channel 3 (575-640 nm) with 5-um width and 100-um depth filters. The ratio of the number of objects in PMT channel 2 over the number of objects in PMT channel 3 was also calculated. Percent activity was computed relative to an internal control (100% inhibited lipid droplet deposition due to the presence of 20 uM Triacsin C), which was added to 32 wells/plate.
# [1] = measured here: lipid fluorescence (Fed channel) AC50, cells fed with added oleic acid
# [2] = measured here: cell number channel AC50, cells fed with added oleic acid
Compound,cell number change [%],AC50 [1],AC50 [2]
O=C(Nc1ccccc1C(F)(F)F)N1CCCCCC1,-2.77,–,–
O=S(=O)(NCCNc1nccc(C(F)(F)F)n1)c1ccccc1,21.9,"29.1 µM [rising, single point]",–
COc1cccc(NC(=O)Cn2nnc(-c3ccccc3N)n2)c1,31.1,–,"0.231 µM [rising, full curve]"
CN(C(=O)COC(=O)c1cc(=O)[nH]c2ccccc12)C1CCCCC1,-59.5,"29.1 µM [falling, single point]","16.4 µM [falling, single point]"
CC(=O)Oc1cc(C(C)C)c(OCCN(C)C)cc1C,42.7,"18.4 µM [rising, single point]","23.1 µM [rising, partial curve]"
O=C(c1noc2c1CCCC2)N1CCc2ccccc2C1,34.2,–,"32.6 µM [rising, partial curve, poor fit]"
COc1ccc(C(=O)CCc2ccccc2)cc1,11.2,"13 µM [rising, partial curve, poor fit]",–
CC(C)COC(=O)C1[C@H]2C(=O)N(Cc3cccs3)C[C@]23C=C[C@H]1O3 (some centres not stated),-20.5,"25.9 µM [falling, partial curve]",–
O=c1cc(CSc2nnc(COc3ccc(Cl)cc3)o2)c2ccccc2[nH]1,24.3,"14.6 µM [rising, partial curve]","2.91 µM [rising, single point]"
COc1ccc(/C=N/n2cnc3c([nH]c4ccccc43)c2=O)cc1CO,57.7,"6.51 µM [rising, partial curve]","0.517 µM [rising, full curve, poor fit]"
Cc1c(/C=N/Nc2nc3ccccc3[nH]2)c2ccccc2n1C,-63.5,–,"5.8 µM [falling, full curve]"
CP(=O)(COC(=O)c1ccccc1)COC(=O)c1ccccc1,17.6,"29.1 µM [falling, single point]",–
O=C(CSc1nc2scc(-c3ccco3)c2c(=O)n1-c1ccccc1)NCC1CCCO1 (configuration not stated),-27.8,"29.1 µM [falling, partial curve, poor fit]",–
Cn1sc(NC(=O)c2ccccc2Cl)nc1=O,184,–,"18.4 µM [rising, single point]"
C/C(=N\NC=O)c1ccncc1,19.4,"1.46 µM [falling, partial curve]",–
O=S(=O)(NCc1ccco1)c1ccc(Cl)cc1Cl,-6.72,–,–
CS(=O)(=O)N1CCC(C(=O)Nc2ccc3c(c2)OCO3)CC1,–,"0.82 µM [falling, single point]",–
CC(C)N1CCc2c(sc(NC(=O)c3ccc4ccccc4c3)c2C(N)=O)C1,-28.2,–,–
COc1ccc(N=C2C(=Nc3ccc(OC)cc3)N(c3ccc(OC)cc3)C(=S)N2C(=O)c2ccc(OC)cc2)cc1,–,"0.517 µM [falling, full curve]","0.461 µM [falling, full curve]"
COc1ccccc1NC(=O)CN1CCC(n2nnc3cc(F)ccc32)CC1,-5.21,"6.51 µM [rising, single point]",–

Compound,cell number change [%],AC50 [1],AC50 [2]
O=C(NCCc1ccc(Cl)cc1)C1COc2ccccc2O1 (configuration not stated),20.2,"29.1 µM [falling, single point]",–
COc1cccc(-n2nnc3c(=O)n(CC(=O)Nc4ccccc4C)cnc32)c1,30.2,"0.146 µM [rising, full curve]","1.3 µM [rising, partial curve]"
COc1ccc(NC(=O)CCn2ccnc2)c(OC)c1,–,"5.17 µM [falling, single point]",–
COC(=O)CC1COc2ccccc2N1C(=O)c1ccc(Br)cc1 (configuration not stated),–,"6.51 µM [falling, single point]",–
Cc1ccc(OCCCC(=O)Nc2ccc(Cl)c(S(=O)(=O)N3CCOCC3)c2)cc1,-6.39,"29.1 µM [falling, partial curve, poor fit]",–
Cc1cc(=O)[nH]c(SCC(=O)Nc2ccccc2[N+](=O)[O-])n1,30.4,"2.06 µM [rising, full curve, poor fit]","0.92 µM [rising, full curve, poor fit]"
CNS(=O)(=O)c1cc(C(=O)NCc2ccco2)ccc1Cl,46,–,"29.1 µM [rising, single point]"
CCN1C(=O)CC(N2CCC(C(=O)OC)CC2)C1=O (configuration not stated),–,–,"0.0731 µM [falling, full curve]"
COc1cccc(OC)c1C(=O)Nc1ccc2c(c1)CCCN2S(=O)(=O)c1ccc(C)cc1,-12.2,"23.1 µM [rising, single point]",–
O=C(Cc1cccs1)Nc1cccnc1,59.5,"0.116 µM [falling, full curve, poor fit]","20.6 µM [rising, single point]"
COc1ccccc1CCNC(C)CCc1ccc(O)cc1 (configuration not stated),-21.8,"0.58 µM [rising, single point]",–
O=C(c1cc2c(ccc3ccccc32)oc1=O)N1CCCC1,-4.58,"2.06 µM [falling, partial curve]",–
CC(C)(C)c1ccc(Cn2nc(CC(=O)O)c3ccccc3c2=O)cc1,108,–,–
O=C(Cn1c(=O)c(=O)n(Cc2ccccc2)c2ccc(Cl)cc21)Nc1ccc(F)cc1F,-24.4,"0.1 µM [falling, full curve, poor fit]",–
CCCCCCC(O)(c1ccccc1)C(CN1CCOCC1)c1ccccc1 (configuration not stated),-1.41,"29.1 µM [falling, single point]",–
CCn1c(Cc2ccccc2)nnc1SCC(=O)Nc1cc(C)on1,-4.25,"1.64 µM [falling, partial curve, poor fit]",–
NC(=O)CSc1nnc(-c2ccc(S(=O)(=O)N3CCCCC3)cc2)n1-c1ccccc1,107,"29.1 µM [rising, single point]","23.1 µM [rising, single point]"
Cc1cccc(NC(=O)Cn2c(=O)oc3ccccc32)c1,1.04,–,–
COc1ccc(C2C(C#N)=C(N)Nc3nc4ccccc4n32)cc1 (configuration not stated),-16.7,"0.206 µM [rising, full curve, poor fit]","0.366 µM [rising, single point]"
CSc1nc2c(c(=O)[nH]1)C(c1ccccc1)C1=C(CC(C)(C)CC1=O)N2 (configuration not stated),-22.5,–,"3.66 µM [falling, single point]"

# Three entries from above, with bars between the fields.
Compound | cell number change [%] | AC50 [1] | AC50 [2]
COc1cccc(OC)c1C(=O)Nc1ccc2c(c1)CCCN2S(=O)(=O)c1ccc(C)cc1 | -12.2 | 23.1 µM [rising, single point] | –
O=C(Cc1cccs1)Nc1cccnc1 | 59.5 | 0.116 µM [falling, full curve, poor fit] | 20.6 µM [rising, single point]
COc1ccccc1CCNC(C)CCc1ccc(O)cc1 (configuration not stated) | -21.8 | 0.58 µM [rising, single point] | –

# Next part:

Compound,cell number change [%],AC50 [1],AC50 [2]
CC1(c2nnc(-c3ccc(Cl)cc3)o2)CC(c2c(Cl)cccc2Cl)=NO1 (configuration not stated),3.4,–,–
Cc1cccc(-n2ncc(C(=O)NC3CCCC3)c2C2CCN(C(=O)OC(C)(C)C)CC2)c1,68.4,–,"16.4 µM [rising, single point]"
CCOc1ccc(NC(=O)c2ccc(NC(=O)Cc3n[nH]c(=O)c4ccccc34)cc2)cc1,24.3,"5.17 µM [rising, partial curve]",–
CCCCN1CCNC[C@@H]1c1ccccc1,-57.4,"32.6 µM [falling, single point]","29.1 µM [falling, single point]"
CC(=O)C1=C(C)NC(SCC(=O)c2ccc(Cl)cc2)=C(C#N)C1CC(C)C (configuration not stated),19.7,–,–
COc1ccccc1-n1c(SC)nc2c(sc(=S)n2-c2ccccc2)c1=O,-6.94,"29.1 µM [rising, single point]",–
NNC(=O)COc1ncn(-c2ccccc2)n1,-51,"2.31 µM [falling, full curve]","16.4 µM [falling, single point]"
CCNC(=O)CC1C(=O)N(c2ccc(F)cc2)C(=O)N1CCc1ccc(OC)cc1 (configuration not stated),45.7,–,"20.6 µM [rising, single point]"
COC(=O)CC1C(=O)NCCN1C(=O)CSc1nnc(Nc2ccc(OC)cc2)s1 (configuration not stated),14.6,–,–
COc1ccc(-c2nc3cc(C)ccn3c2NC(=O)c2ccccc2OC)cc1,-31.3,"29.1 µM [falling, single point]","29.1 µM [falling, single point]"
O=C(CSc1nc2ccccc2nc1N1CCCCC1)N1CCN(c2ccccc2)CC1,-13.3,"29.1 µM [falling, single point]",–
Cc1cc(C)c2nc(NNC(=O)c3cc(-c4cccs4)nc4ccccc34)sc2c1,-11.9,"0.651 µM [rising, full curve]",–
Cc1ccccc1C(=O)N1CCN(c2ccc(NC(=O)c3cccc(OC(C)C)c3)cc2)CC1,–,"0.651 µM [rising, full curve]",–
O=C(CSc1nc(-c2ccco2)cc(C(F)(F)F)n1)NC1CCCC1,15.6,"7.31 µM [rising, partial curve]",–
Cc1ccc(NC(=O)Cn2nnc(C(=O)NCc3ccco3)c2N)c(C)c1,23.3,–,–
CN(c1ccc(OC(=O)c2ccc(-n3cncn3)c([N+](=O)[O-])c2)cc1)S(=O)(=O)c1ccccc1,11.9,"2.06 µM [falling, partial curve]",–
COc1ccc(NC(=O)Cn2cc(C(=O)C3CC3)c3ccccc32)cc1,79.1,–,–
COc1ccc(C(C[N+](=O)[O-])c2c(C)[nH]n(-c3ccccc3)c2=O)cc1 (configuration not stated),-61.1,"16.4 µM [falling, partial curve]","16.4 µM [falling, partial curve]"
COc1ccc(/C=C(\NC(=O)c2ccco2)C(=O)N2CCOCC2)cc1,26.9,–,–
O=C(NC(=S)Nc1ccc(Cl)cn1)C(c1ccccc1)c1ccccc1,-20.7,"14.6 µM [falling, single point]",–
